Measured values: paper PMC3171409
Where two headings read alike, the source gives them in different places. Results are given in words; binding and its absence hold for the method and conditions named. Binding seen in cells or lysates may run through a third protein. Some entries that bind do so weakly or less than the wild type. Where a sequence is shown, tags or fusion partners need not be part of it.

The chains behind the UniProt entries cited, without tags or fusion partners.
UniProt Q9Y572: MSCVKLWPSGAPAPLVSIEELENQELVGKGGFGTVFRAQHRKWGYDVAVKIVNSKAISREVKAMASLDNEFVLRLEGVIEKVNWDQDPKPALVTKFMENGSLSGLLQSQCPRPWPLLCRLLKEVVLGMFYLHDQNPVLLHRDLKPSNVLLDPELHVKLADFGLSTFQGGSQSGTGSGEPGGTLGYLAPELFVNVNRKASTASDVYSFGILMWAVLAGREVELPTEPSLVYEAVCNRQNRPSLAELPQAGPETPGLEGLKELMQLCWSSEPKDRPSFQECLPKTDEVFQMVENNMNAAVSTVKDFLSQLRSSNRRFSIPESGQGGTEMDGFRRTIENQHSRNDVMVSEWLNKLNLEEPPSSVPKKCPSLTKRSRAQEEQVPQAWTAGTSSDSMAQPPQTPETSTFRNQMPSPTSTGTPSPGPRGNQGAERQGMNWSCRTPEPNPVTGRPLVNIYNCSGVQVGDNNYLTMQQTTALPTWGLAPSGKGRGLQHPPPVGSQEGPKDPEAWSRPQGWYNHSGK
UniProt Q13546: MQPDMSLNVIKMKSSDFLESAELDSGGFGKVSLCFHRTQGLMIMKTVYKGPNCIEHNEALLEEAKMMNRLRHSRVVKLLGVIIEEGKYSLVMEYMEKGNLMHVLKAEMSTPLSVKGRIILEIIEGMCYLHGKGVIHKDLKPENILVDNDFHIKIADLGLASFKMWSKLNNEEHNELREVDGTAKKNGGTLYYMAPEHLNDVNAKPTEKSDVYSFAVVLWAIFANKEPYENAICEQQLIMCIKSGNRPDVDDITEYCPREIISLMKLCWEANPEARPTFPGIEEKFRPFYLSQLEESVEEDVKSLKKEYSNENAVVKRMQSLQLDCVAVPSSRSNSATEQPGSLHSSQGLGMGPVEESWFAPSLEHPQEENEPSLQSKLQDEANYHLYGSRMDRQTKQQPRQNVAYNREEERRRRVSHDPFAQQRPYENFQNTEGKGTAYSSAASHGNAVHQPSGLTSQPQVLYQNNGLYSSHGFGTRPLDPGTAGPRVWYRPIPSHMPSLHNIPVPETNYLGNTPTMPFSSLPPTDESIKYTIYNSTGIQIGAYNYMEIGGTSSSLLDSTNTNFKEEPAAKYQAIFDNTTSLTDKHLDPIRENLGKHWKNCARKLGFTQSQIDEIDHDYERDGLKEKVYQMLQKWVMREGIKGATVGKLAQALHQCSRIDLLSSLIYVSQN

Legend:
[1] = molecular target: FLAG-tagged cIAP1 expressed in HEK293T cells (UniProt Q13490)
[2] = molecular target: Myc-tagged cIAP2 expressed in HEK293T cells (UniProt Q13489)
[3] = molecular target: GST-cIAP2 fusion protein (UniProt Q13489)
[4] = molecular target: GST-XIAP fusion protein (UniProt P98170)
[5] = molecular target: GST-cIAP1 fusion protein (UniProt Q13490)
[6] = molecular target: GST-cIAP2 fusion protein (UniProt Q13489); remark: listed apart in the source
[7] = molecular target: GST-XIAP fusion protein (UniProt P98170); remark: listed apart in the source
[8] = molecular target: GST-cIAP1 fusion protein (UniProt Q13490); remark: listed apart in the source

Measured: binding

VSV-tagged human RIP3 expressed in HEK293T cells (from UniProt Q9Y572 1-518)
binds: [1] | [2]

VSV-tagged human RIP3, in vitro transcribed and translated, 35S-methionine labelled (from UniProt Q9Y572 1-518)
not listed: [1] | [2]
binds: all other assays above

VSV-tagged human RIP1, in vitro transcribed and translated, 35S-methionine labelled (from UniProt Q13546 1-671)
binds: [3] | [4] | [5] | [7]

VSV-tagged human RIP1 expressed in HEK293T cells (from UniProt Q13546 1-671)
binds: [1] | [2]

B1: VSV-tagged human RIP4, in vitro transcribed and translated, 35S-methionine labelled (protein, UniProt P57078 1-832)
chain: MEGDGGTPWALALLRTFDAGEFTGWEKVGSGGFGQVYKVRHVHWKTWLAIKCSPSLHVDDRERMELLEEAKKMEMAKFRYILPVYGICREPVGLVMEYMETGSLEKLLASEPLPWDLRFRIIHETAVGMNFLHCMAPPLLHLDLKPANILLDAHYHVKISDFGLAKCNGLSHSHDLSMDGLFGTIAYLPPERIREKSRLFDTKHDVYSFAIVIWGVLTQKKPFADEKNILHIMVKVVKGHRPELPPVCRARPRACSHLIRLMQRCWQGDPRVRPTFQGNGLNGELIRQVLAALLPVTGRWRSPGEGFRLESEVIIRVTCPLSSPQEITSETEDLCEKPDDEVKETAHDLDVKSPPEPRSEVVPARLKRASAPTFDNDYSLSELLSQLDSGVSQAVEGPEELSRSSSESKLPSSGSGKRLSGVSSVDSAFSSRGSLSLSFEREPSTSDLGTTDVQKKKLVDAIVSGDTSKLMKILQPQDVDLALDSGASLLHLAVEAGQEECAKWLLLNNANPNLSNRRGSTPLHMAVERRVRGVVELLLARKISVNAKDEDQWTALHFAAQNGDESSTRLLLEKNASVNEVDFEGRTPMHVACQHGQENIVRILLRRGVDVSLQGKDAWLPLHYAAWQGHLPIVKLLAKQPGVSVNAQTLDGRTPLHLAAQRGHYRVARILIDLCSDVNVCSLLAQTPLHVAAETGHTSTARLLLHRGAGKEAMTSDGYTALHLAARNGHLATVKLLVEEKADVLARGPLNQTALHLAAAHGHSEVVEELVSADVIDLFDEQGLSALHLAAQGRHAQTVETLLRHGAHINLQSLKFQGGHGPAATLLRRSKT
modifications: 35S-methionine labelled
not listed: [1] | [2]
binds: all other assays above

B2: VSV-tagged human RIP4 expressed in HEK293T cells (protein, UniProt P57078 1-832)
chain: B1 chain
binds: [1] | [2]
